Counter-ions that a name gives are not always drawn. The list shows a part of the results. Single values of this set are uncertain.

This experiment concerns Peyronie's disease tunica albuginea primary fibroblasts. As to the kind of experiment: cell viability (DRAQ5 nuclear stain) relative to TGF-beta1-only control; higher = more viable cells. Conditions: 10 µM; TGF-beta1 10 ng/mL; 72 h.
On to `O=C([O-])c1ccccc1.[Na+]` [Sodium benzoate], for which the cell viability (commonly a read-out of living cells in per cent, often relative to untreated cells) worked out at 95.1%.
With `C[C@]1(O)C[C@@H](c2nc(-c3ccc4ccc(-c5ccccc5)nc4c3)c3c(N)nccn32)C1` [Linsitinib (OSI-906)], the cell viability is 84.9%.
`C=CCNC(N)=S` [Allylthiourea]: the cell viability came to 76%.
For `CN(C)CCOC(C)(c1ccccc1)c1ccccn1` (stereo not given) [Doxylamine Succinate] the value was 79.1%; for `COc1cc2nccc(Oc3ccc(NC(=O)Nc4cc(C)on4)c(Cl)c3)c2cc1OC` [Tivozanib (AV-951)], 69.2%.
For `CC(C)(C#N)c1cc(Cn2cncn2)cc(C(C)(C)C#N)c1` [Anastrozole] the value was 75.5%; for `Oc1c(I)cc(Cl)c2cccnc12` [Clioquinol], 84.8%; for `C[C@@H](O)[C@H]1C(=O)N2C(C(=O)O)=C(S[C@@H]3CN[C@H](CNS(N)(=O)=O)C3)[C@H](C)[C@H]12` [Doripenem Hydrate], 75.3%.
As for `C[C@@H](O)[C@H]1C(=O)N2C(C(=O)O)=C(S[C@@H]3CN[C@H](CNS(N)(=O)=O)C3)[C@H](C)[C@H]12` [Doripenem], the cell viability was found to be 98.5%.
Take `Nc1ccn([C@H]2CC[C@@H](CO)O2)c(=O)n1` [Zalcitabine]: the cell viability turned out to be 98.7%.
For `CC(S)C(=O)NCC(=O)O` (stereo not given) [Tiopronin], the cell viability was 92.5%.
Under `CN1CCN(CCCN2c3ccccc3Sc3ccc(C(F)(F)F)cc32)CC1` [Trifluoperazine 2HCl] stands 74.7%; under `CNC[C@H](O)c1ccc(O)c(O)c1` [Epinephrine bitartrate], 104%; under `CNC[C@H](O)c1ccc(O)c(O)c1` [Epinephrine HCl], 97.6%.
As for `COC[C@H]1C[C@@H](c2nc(-c3ccc4c(c3)COc3cc5c(ccc6nc([C@@H]7CC[C@H](C)N7C(=O)[C@@H](NC(=O)OC)C(C)C)[nH]c65)cc3-4)c[nH]2)N(C(=O)[C@H](NC(=O)OC)c2ccccc2)C1` [Velpatasvir], the cell viability worked out at 85.8%.
In the case of `OC(CNCC(O)C1CCc2cc(F)ccc2O1)C1CCc2cc(F)ccc2O1` (stereo not given) [Nebivolol HCl], the cell viability was determined as 54.6%.
Take `CC[C@H](C)[C@H](N)C1=N[C@H](C(=O)N[C@@H](CC(C)C)C(=O)N[C@H](CCC(=O)O)C(=O)N[C@H](C(=O)N[C@H]2CCCCNC(=O)[C@H](CC(N)=O)NC(=O)[C@@H](CC(=O)O)NC(=O)[C@H](Cc3cnc[nH]3)NC(=O)[C@@H](Cc3ccccc3)NC(=O)[C@H]([C@@H](C)CC)NC(=O)[C@@H](CCCN)NC2=O)[C@@H](C)CC)CS1` [Bacitracin]: the cell viability turned out to be 97.4%.
For `NC(=O)c1cccc2cn(-c3ccc([C@@H]4CCCNC4)cc3)nc12` [Niraparib (MK-4827) tosylate], the cell viability amounted to 87.6%.
`NC(=O)c1cccc2cn(-c3ccc([C@@H]4CCCNC4)cc3)nc12` [Niraparib (MK-4827)]: the cell viability worked out at 77.5%.
As to `CC(=O)NS(=O)(=O)c1ccc(NC(=O)c2ccccc2C(=O)O)cc1` [Phthalylsulfacetamide], the cell viability turned out to be 92.2%.
Consider `Cc1cc(/C=C/C#N)cc(C)c1Nc1ccnc(Nc2ccc(C#N)cc2)n1` [Rilpivirine], for which the cell viability came to 78.9%.
On to `Oc1c(Cl)cc(Cl)c(Cl)c1Cc1c(O)c(Cl)cc(Cl)c1Cl` [Hexachlorophene], for which the cell viability came out at 41.4%.
Under `CCOc1cc2ncc(C#N)c(Nc3ccc(F)c(Cl)c3)c2cc1NC(=O)/C=C/CN(C)C` [Pelitinib (EKB-569)] stands 57.4%; under `COc1ccc(/C=C/C(=O)Nc2ccccc2C(=O)O)cc1OC` [Tranilast], 69.4%; under `CCN(CC)CCNC(=O)c1c(C)[nH]c(/C=C2\C(=O)Nc3ccc(F)cc32)c1C` [Sunitinib Malate], 31.7%.
For `CCN(CC)CCNC(=O)c1c(C)[nH]c(/C=C2\C(=O)Nc3ccc(F)cc32)c1C` [Sunitinib] the value was 77.1%; for `Oc1ccc(/C=C/c2cc(O)cc(O)c2)cc1` [Resveratrol], 91.3%.
Take `CN1[C@@H]2CC[C@H]1C[C@@H](OC(=O)c1c[nH]c3ccccc13)C2` [Tropisetron HCl]: the cell viability was 82.5%.
Take `CN1[C@@H]2CC[C@H]1C[C@@H](OC(=O)c1c[nH]c3ccccc13)C2` [Tropisetron]: the cell viability was 80.4%.
As for `Cc1cccc(C)c1OCC(C)N` (stereo not given) [Mexiletine HCl], the cell viability is 79.9%.
As to `COc1ccccc1OCC(O)CO` (stereo not given) [Guaifenesin], the cell viability turned out to be 94.9%.
For `CC[C@]1(O)C[C@H]2CN(CCc3c([nH]c4ccccc34)[C@@](C(=O)OC)(c3cc4c(cc3OC)N(C=O)[C@H]3[C@@](O)(C(=O)OC)[C@H](OC(C)=O)[C@]5(CC)C=CCN6CC[C@]43[C@@H]65)C2)C1` [Vincristine sulfate], the cell viability came out at 80.3%.
Take `Nc1nc(CC(=O)Nc2ccc(CCNC[C@H](O)c3ccccc3)cc2)cs1` [Mirabegron]: the cell viability came to 91.3%.
Regarding `NC[C@@H]1O[C@H](O[C@H]2[C@@H](O)[C@H](O[C@@H]3[C@@H](O)[C@H](N)C[C@H](N)[C@H]3O[C@H]3O[C@H](CO)[C@@H](O)[C@H](O)[C@H]3N)O[C@@H]2CO)[C@H](N)[C@@H](O)[C@@H]1O` [Paromomycin Sulfate], the cell viability worked out at 91.9%.
As to `Cc1cc(=O)[nH]c(=S)[nH]1` [Methylthiouracil], the cell viability was found to be 97.9%.
For `C[C@H]1O[C@@H](O[C@H]2[C@@H](O)C[C@H](O[C@H]3[C@@H](O)C[C@H](O[C@H]4CC[C@@]5(C)[C@H](CC[C@@H]6[C@@H]5C[C@@H](O)[C@]5(C)[C@@H](C7=CC(=O)OC7)CC[C@]65O)C4)O[C@@H]3C)O[C@@H]2C)C[C@H](O)[C@@H]1O` [Digoxin] the value was 24.3%.
As for `C[C@H](CCC(=O)O)[C@H]1CC[C@H]2[C@@H]3[C@H](O)C[C@@H]4C[C@H](O)CC[C@]4(C)[C@H]3C[C@H](O)[C@]12C` [Cholic acid], the cell viability turned out to be 91.9%.
For `OB1OCc2cc(F)ccc21` [Tavaborole (AN-2690)], the cell viability was 75.6%.
Take `CC[C@H]1OC(=O)[C@H](C)[C@@H](O[C@H]2C[C@@](C)(OC)[C@@H](O)[C@H](C)O2)[C@H](C)[C@@H](O[C@@H]2O[C@H](C)C[C@H](N(C)C)[C@H]2O)[C@](C)(O)C[C@@H](C)C(=O)[C@H](C)[C@H]2OC(=O)O[C@@]21C` [Erythromycin Cyclocarbonate]: the cell viability turned out to be 86.3%.
As for `Cc1c(OCC(F)(F)F)ccnc1C[S@@+]([O-])c1nc2ccccc2[nH]1` [Dexlansoprazole], the cell viability came out at 83.5%.
